Source: paper PMC12012714
The exact form of at least one protein or probe is not confirmed.

Tested on: cGAS
Test: EMSA
Settings: 4 pmol DNA, 15 ug cGAS, 5' biotin on listed oligos (not stated whether present in the cGAS assay), cGAS EMSA: 4 pmol DNA + 15 ug cGAS, 37 °C 10 min, 3.5% agarose TBE gel, 300 V, cold buffer, EtBr stain, salt and pH not stated, recombinant protein, protein details: His6-SUMO (not removed)

GGAGACCGTGACCGGTGGTGCAGATGAACTTCAGGGTCACGGTGGTGCAGATGAACTTCAGGGTCA (double strand) [66 bp dsDNA (66.1/66.2)]
binding result: binds
